Patent publication US7067619
These are yes or no findings as the source states them, for the method shown. Some results given as binding are weak or reduced against the parent protein; the word gives no strength.

The chains behind the UniProt entries cited, without tags or fusion partners. Where a name states a change or a piece, a line headed by the entry shows the natural chain unless it says otherwise.
UniProt P08514: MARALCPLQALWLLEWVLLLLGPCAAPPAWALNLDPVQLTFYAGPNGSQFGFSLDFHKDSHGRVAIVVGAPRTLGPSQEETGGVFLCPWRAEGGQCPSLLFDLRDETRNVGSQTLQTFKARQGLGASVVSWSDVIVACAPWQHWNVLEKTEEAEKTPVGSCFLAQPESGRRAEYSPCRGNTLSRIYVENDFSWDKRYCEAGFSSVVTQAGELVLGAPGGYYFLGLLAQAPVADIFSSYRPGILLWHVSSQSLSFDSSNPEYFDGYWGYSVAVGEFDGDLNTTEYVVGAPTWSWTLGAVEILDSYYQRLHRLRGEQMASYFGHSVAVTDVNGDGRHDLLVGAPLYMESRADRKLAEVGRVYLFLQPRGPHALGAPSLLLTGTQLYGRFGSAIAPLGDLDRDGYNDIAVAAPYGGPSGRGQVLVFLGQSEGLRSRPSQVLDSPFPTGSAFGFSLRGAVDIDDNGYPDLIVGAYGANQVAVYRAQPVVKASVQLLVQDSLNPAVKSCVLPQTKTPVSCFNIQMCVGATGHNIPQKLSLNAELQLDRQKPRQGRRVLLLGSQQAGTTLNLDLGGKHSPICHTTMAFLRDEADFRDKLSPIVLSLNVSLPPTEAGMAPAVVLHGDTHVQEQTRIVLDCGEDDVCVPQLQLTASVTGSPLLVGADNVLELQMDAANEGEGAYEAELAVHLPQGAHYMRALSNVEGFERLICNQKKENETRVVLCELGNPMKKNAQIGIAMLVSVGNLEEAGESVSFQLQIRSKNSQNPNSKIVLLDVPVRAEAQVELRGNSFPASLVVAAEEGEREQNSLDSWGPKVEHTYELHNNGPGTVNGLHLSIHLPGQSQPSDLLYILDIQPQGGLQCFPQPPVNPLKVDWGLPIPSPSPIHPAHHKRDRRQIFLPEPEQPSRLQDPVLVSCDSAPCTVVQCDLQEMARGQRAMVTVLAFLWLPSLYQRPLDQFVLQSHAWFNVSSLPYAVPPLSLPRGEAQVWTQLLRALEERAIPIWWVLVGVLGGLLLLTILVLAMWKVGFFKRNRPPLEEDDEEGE

B1: CRGDNYWC phage (peptide)
peptide: CRGDNYWC
B2: CRGDNSAC phage (peptide)
peptide: CRGDNSAC
B3: CPRGDWPC phage (peptide)
peptide: CPRGDWPC
B4: CGRGDQLC phage (peptide)
peptide: CGRGDQLC
B5: CVRGDRMC phage (peptide)
peptide: CVRGDRMC
B6: CRGDRALC phage (peptide)
peptide: CRGDRALC
B7: CRGDTRSC phage (peptide)
peptide: CRGDTRSC
B8: CGRGDGDC phage (peptide)
peptide: CGRGDGDC
B9: CRADVPLC phage (peptide)
peptide: CRADVPLC
B10: CGRLDVPC phage (peptide)
peptide: CGRLDVPC
B11: CYRRDVPC phage (peptide)
peptide: CYRRDVPC
B12: CKGDMPRC phage (peptide)
peptide: CKGDMPRC
B13: CRHDSPRC phage (peptide)
peptide: CRHDSPRC
B14: CKRRDYPC phage (peptide)
peptide: CKRRDYPC
B15: CTRTDGWC phage (peptide)
peptide: CTRTDGWC
B16: CMRTDGRC phage (peptide)
peptide: CMRTDGRC
B17: CRTRDSPC phage (peptide)
peptide: CRTRDSPC
B18: CVVRDMPC phage (peptide)
peptide: CVVRDMPC
B19: … phage (peptide)
peptide: CRRGDFGGC
B20: … phage (peptide)
peptide: CFSRGDFPC
B21: … phage (peptide)
peptide: CHIRGDFPC
B22: … phage (peptide)
peptide: CRYRGDLPC
B23: … phage (peptide)
peptide: CYARGDYPC
B24: … phage (peptide)
peptide: CSARGDWPC
B25: … phage (peptide)
peptide: CKRGDWIRC
B26: … phage (peptide)
peptide: CGARGDSRC
B27: … phage (peptide)
peptide: CRRMDMPDC
B28: … phage (peptide)
peptide: CWARRDMPC
B29: … phage (peptide)
peptide: CWVRSDLGC
B30: … phage (peptide)
peptide: CPLRRDWIC
B31: … phage (peptide)
peptide: CTARSDRRC
B32: … phage (peptide)
peptide: CMSRADRPC
B33: … phage (peptide)
peptide: CSGRHDDYC
B34: … phage (peptide)
peptide: CHSTRDELC

Target: αIIbβ3 integrin isolated from outdated platelets (UniProt P08514)
Assay: phage panning on coated integrin

Binder	binding
B1	binds
B2	binds
B3	binds
B4	binds
B5	binds
B6	binds
B7	binds
B8	binds
B9	binds
B10	binds
B11	binds
B12	binds
B13	binds
B14	binds
B15	binds
B16	binds
B17	binds

Binder	binding
B18	binds
B19	binds
B20	binds
B21	binds
B22	binds
B23	binds
B24	binds
B25	binds
B26	binds
B27	binds
B28	binds
B29	binds
B30	binds
B31	binds
B32	binds
B33	binds
B34	binds
